Reference: publication PMC2954983
No constants are given. Whether binding was seen depends on the method and setting. Binding seen in cells or lysates may run through a third protein. Some results given as binding are weak or reduced against the parent protein; the word gives no strength.

Amino acid sequences for entries named in this document (tags omitted). A change or cut given only in a name is not applied to a line headed by its entry. Chains listed by the source or under a name are the forms on record and can include a tag or linker.
AT1R N4,176,188 D, tagged with venus1 or venus2 (P30556, form named): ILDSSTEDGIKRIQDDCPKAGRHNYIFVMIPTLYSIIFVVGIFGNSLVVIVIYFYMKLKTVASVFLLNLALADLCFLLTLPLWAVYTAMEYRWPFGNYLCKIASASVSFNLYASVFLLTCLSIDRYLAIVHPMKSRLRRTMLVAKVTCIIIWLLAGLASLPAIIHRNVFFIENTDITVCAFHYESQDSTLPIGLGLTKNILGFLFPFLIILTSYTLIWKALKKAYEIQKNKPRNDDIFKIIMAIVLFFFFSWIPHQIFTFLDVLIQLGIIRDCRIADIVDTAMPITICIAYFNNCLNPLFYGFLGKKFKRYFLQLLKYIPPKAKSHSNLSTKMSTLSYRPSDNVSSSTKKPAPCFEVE

Legend:
[1] = biological target: AT1R N4,176,188 D, tagged with venus1 or venus2 (UniProt P30556); experiment: split reporter; BiFC of venus1- and venus2-tagged receptors in transfected HEK293 cells, fixed with 3% paraformaldehyde, read by fluorescence microscopy (excitation 488 nm, emission 525 nm)
[2] = biological target: angiotensin II AT1 receptor, wild type, tagged with venus1 or venus2 (UniProt P30556); experiment: as above
[3] = biological target: angiotensin II AT1 receptor, wild type, tagged with venus1 or venus2 (UniProt P30556); experiment: split reporter; BiFC of WT AT1R-v1/v2 and β2AR-v1/v2 in transfected HEK293 cells resuspended in PBS, fluorescence read in a plate reader at 528 nm; with co-expressed Bip WT or T37G, ERp57, or inhibitory RNAs
[4] = biological target: angiotensin II AT1 receptor, wild type, tagged with venus1 or venus2 (UniProt P30556); experiment: split reporter; BiFC of venus1- and venus2-tagged receptors in transfected HEK293 cells, read by Western blot of RIPA lysates with an anti-GFP antibody that does not recognise receptors carrying only one portion of venus
[5] = biological target: AT1R N4,176,188 D, tagged with venus1 or venus2 (UniProt P30556); experiment: as above

Row | binding [1] | binding [2] | binding [3] | binding [4] | binding [5] | Substance
1 | binds | binds | binds | binds |  | angiotensin II AT1 receptor, wild type, tagged with venus1 or venus2 (from UniProt P30556 1-359)
2 | binds |  |  |  | binds | AT1R N4,176,188 D, tagged with venus1 or venus2 (from UniProt P30556 2-359) (receptor)
